Data: the supplement of paper PMC12593923
Counter-ions that a name gives are not always drawn. Several reference drugs read as weak here; read low effects with care.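 The three lines are all high-grade serous ovarian cancer cells with differing chemosensitivity; OVCAR3 is described as chemosensitive. Toxicity was normalized between DMSO vehicle wells and fully lysed wells, the score comes from a fitted multi-dose response curve, and a score above 5 was counted as drug sensitivity.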

Tests used:
Test in all cases: drug sensitivity score (DSS2, cytotoxicity, CellTox Green); higher = more cytotoxic / more sensitive; extreme values may be limits of the assay
Details in all cases: 72 h; doses 0.5, 1, 5 µM
OVCAR4 = system: OVCAR4
OVCAR3 = system: OVCAR3
Kuramochi = system: Kuramochi

Row | SMILES | drug sensitivity score (OVCAR4) | drug sensitivity score (OVCAR3) | drug sensitivity score (Kuramochi)
1 | CCS(=O)(=O)N1CC(CC#N)(n2cc(-c3ncnc4[nH]ccc34)cn2)C1 [Baricitinib] | 0 DSS | 0 DSS | 0 DSS
2 | Cc1c(C)c2c(c(C)c1O)CCC(C)(COc1ccc(CC3SC(=O)NC3=O)cc1)O2 (stereo not drawn) [Troglitazone] | 0 DSS | 0 DSS | 0 DSS
3 | CC(C(=O)O)c1ccc(-c2ccccc2)c(F)c1 (stereo not drawn) [Flurbiprofen] | 0 DSS | 0 DSS | 0 DSS
4 | C[C@]12CC[C@@H]3c4ccc(O)cc4C[C@@H](CCCCCCCCC[S+]([O-])CCCC(F)(F)C(F)(F)F)[C@H]3[C@@H]1CC[C@@H]2O (stereo partly drawn) [Fulvestrant] | 0 DSS | 0 DSS | 0 DSS
5 | COCCCOc1cc(C[C@@H](C[C@H](N)[C@@H](O)C[C@H](C(=O)NCC(C)(C)C(N)=O)C(C)C)C(C)C)ccc1OC [Aliskiren (hemifumarate)] | 0 DSS | 0.1 DSS | 0 DSS
6 | O=C(c1ccc(F)c(F)c1Nc1ccc(I)cc1F)N1CC(O)([C@@H]2CCCCN2)C1 [Cobimetinib] | 0 DSS | 0 DSS | 0 DSS
7 | N=C(N)NC(=N)NCCc1ccccc1 [Phenformin (hydrochloride)] | 0 DSS | 0 DSS | 0 DSS
8 | CC[C@@H]1CN(C(=O)NCC(F)(F)F)C[C@@H]1c1cnc2cnc3[nH]ccc3n12 [Upadacitinib] | 0 DSS | 0 DSS | 0 DSS
9 | C=CCc1ccc(O)c(-c2cc(CC=C)ccc2O)c1 [Magnolol] | 0 DSS | 0 DSS | 0 DSS
10 | CC(C(=O)O)c1ccc2c(c1)Cc1cccnc1O2 (stereo not drawn) [Pranoprofen] | 0 DSS | 0 DSS | 0 DSS
11 | C/C(=C\c1csc(C)n1)[C@@H]1C[C@@H]2O[C@]2(C)CCC[C@H](C)[C@H](O)[C@@H](C)C(=O)C(C)(C)[C@@H](O)CC(=O)N1 [Ixabepilone] | 0 DSS | 1 DSS | 2 DSS
12 | C[C@H]1C[C@H]2[C@@H]3CCC4=CC(=O)C=C[C@]4(C)[C@H]3C(=O)C[C@]2(C)[C@@]1(O)C(=O)CO [Meprednisone] | 0 DSS | 0 DSS | 0 DSS
13 | Cc1c(C)c2c(c(C)c1O)CC[C@@](C)(CCC[C@H](C)CCC[C@H](C)CCCC(C)C)O2 [α-Vitamin E] | 0 DSS | 0 DSS | 0 DSS
14 | C[C@H]1[C@@H](O)O[C@@H]2O[C@@]3(C)CC[C@H]4[C@H](C)CC[C@@H]1[C@@]24OO3 [Dihydroartemisinin] | 0 DSS | 0 DSS | 0 DSS
15 | CN1CCOC(c2ccccc2)c2ccccc2C1 (stereo not drawn) [Nefopam (hydrochloride)] | 0 DSS | 0 DSS | 0 DSS
16 | O=C1CCC(N2Cc3c(CCCCCNC(=O)c4ccc(NC(=O)[C@@H]5NC6(CCCCC6)[C@@]6(C(=O)Nc7cc(Cl)ccc76)[C@H]5c5cccc(Cl)c5F)cc4)cccc3C2=O)C(=O)N1 (stereo partly drawn) [MD-222] | 0 DSS | 0 DSS | 0 DSS
17 | CCCCCCCC/C=C\CCCCCCCC(=O)O [Oleic acid] | 0 DSS | 0 DSS | 0 DSS
18 | CN(C)C/C=C/C(=O)Nc1cc2c(Nc3ccc(F)c(Cl)c3)ncnc2cc1O[C@H]1CCOC1 [Afatinib (dimaleate)] | 0 DSS | 0 DSS | 0 DSS
19 | CCCc1nc2c(C)cc(-c3nc4ccccc4n3C)cc2n1Cc1ccc(-c2ccccc2C(=O)O)cc1 [Telmisartan] | 0 DSS | 0 DSS | 0 DSS
20 | Cn1cnc2c(F)c(Nc3ccc(Br)cc3Cl)c(C(=O)NOCCO)cc21 [Selumetinib] | 0 DSS | 1.3 DSS | 0 DSS
21 | COc1c(C)c2c(c(O)c1C/C=C(\C)CCC(=O)O)C(=O)OC2 [Mycophenolic acid] | 0 DSS | 0 DSS | 0 DSS
22 | COCCCOc1cc(C[C@@H](C[C@H](N)[C@@H](O)C[C@H](C(=O)NCC(C)(C)C(N)=O)C(C)C)C(C)C)ccc1OC [Aliskiren] | 0 DSS | 0 DSS | 0 DSS
23 | C[C@@H]1CC[C@H]2[C@@H](C)C(=O)O[C@@H]3O[C@@]4(C)CC[C@@H]1[C@]32OO4 [Artemisinin] | 0 DSS | 0 DSS | 0 DSS

Row | SMILES | drug sensitivity score (OVCAR4) | drug sensitivity score (OVCAR3) | drug sensitivity score (Kuramochi)
24 | CCn1c2ccccc2c2cc(CNC)ccc21 [PhiKan 083] | 0 DSS | 0 DSS | 0.4 DSS
25 | CCCc1nn(C)c2c(=O)[nH]c(-c3cc(S(=O)(=O)N4CCN(C)CC4)ccc3OCC)nc12 [Sildenafil] | 0 DSS | 2.3 DSS | 3.3 DSS
26 | CC1=NN(c2ccccc2)C(=O)C1 [Edaravone] | 0 DSS | 0 DSS | 0 DSS
27 | CC(=O)O[C@]1(C(C)=O)CC[C@H]2[C@@H]3C=C(C)C4=CC(=O)CC[C@]4(C)[C@H]3CC[C@@]21C [Megestrol acetate] | 0 DSS | 0 DSS | 0 DSS
28 | S=c1nc[nH]c2nc[nH]c12 [6-Mercaptopurine] | 0 DSS | 0 DSS | 0 DSS
29 | COc1ccc2[nH]c3c(-c4cccc5ccccc45)nccc3c2c1 [SP-141] | 0.7 DSS | 8.6 DSS | 2 DSS
30 | Cc1ccc(NS(=O)(=O)c2ccc3c(c2)C2C=CCC2C(c2ccc(C(=O)O)cc2)N3)cc1C (stereo not drawn) [MX69] | 0 DSS | 0 DSS | 0 DSS
31 | N[C@@H]1[C@H]2CN(c3nc4c(cc3F)c(=O)c(C(=O)O)cn4-c3ccc(F)cc3F)C[C@@H]12 [Trovafloxacin] | 0 DSS | 0 DSS | 0 DSS
32 | COC(=O)CCC(=O)CN [Methyl aminolevulinate (hydrochloride)] | 0 DSS | 0 DSS | 0 DSS
33 | CC[C@@]1(O)C(=O)OCc2c1cc1n(c2=O)Cc2cc3ccccc3nc2-1 [Camptothecin] | 0 DSS | 0 DSS | 0 DSS
34 | CCc1c2c(nc3ccc(OC(=O)N4CCC(N5CCCCC5)CC4)cc13)-c1cc3c(c(=O)n1C2)COC(=O)[C@]3(O)CC [Irinotecan] | 0 DSS | 0 DSS | 0 DSS
35 | COc1ccc2cc3[n+](cc2c1OC)CCc1cc2c(cc1-3)OCO2 [Berberine (chloride)] | 0 DSS | 0 DSS | 0 DSS
36 | COc1cc2ncnc(Nc3ccc(F)c(Cl)c3)c2cc1OCCCN1CCOCC1 [Gefitinib] | 0 DSS | 0 DSS | 0 DSS
37 | Cc1ccc(NC(=O)c2ccc(CN3CCN(C)CC3)cc2)cc1Nc1nc(-c2cccnc2)cs1 [Masitinib] | 0 DSS | 0 DSS | 0 DSS
38 | CNC(=O)c1ccc(N2C(=S)N(c3ccc(C#N)c(C(F)(F)F)c3)C(=O)C2(C)C)cc1F [Enzalutamide] | 0 DSS | 0 DSS | 0 DSS
39 | Cc1c(N)nc(C(CC(N)=O)NCC(N)C(N)=O)nc1C(=O)NC(C(=O)NC(C)C(O)C(C)C(=O)NC(C(=O)NCCc1nc(-c2nc(C(=O)NCCC[S+](C)C)cs2)cs1)C(C)O)C(O[C@@H]1O[C@@H](CO)[C@@H](O)[C@H](O)[C@@H]1O[C@H]1O[C@H](CO)[C@@H](O)[C@H](OC(N)=O)[C@@H]1O)c1cnc[nH]1 (stereo partly drawn) [Bleomycin (sulfate)] | 0 DSS | 0 DSS | 0 DSS
40 | CC1(C)CCC2(CC1)N[C@@H](C(=O)N[C@@H]1CC[C@@H](C(N)=O)OC1)[C@H](c1ccnc(Cl)c1F)[C@]21C(=O)Nc2cc(Cl)ccc21 [Milademetan (tosylate hydrate)] | 0 DSS | 0 DSS | 0 DSS
41 | Cc1ccc(-c2cn3c4c(sc3n2)CCCC4)cc1 [Pifithrin-β (hydrobromide)] | 0 DSS | 0 DSS | 0 DSS
42 | COc1cc2c(c(OC)c1OC)-c1ccc(OC)c(=O)cc1[C@@H](NC(C)=O)CC2 [Colchicine] | 0 DSS | 4.9 DSS | 2.6 DSS
43 | O=C1c2c(O)ccc(O)c2C(=O)c2c(NCCNCCO)ccc(NCCNCCO)c21 [Mitoxantrone] | 0 DSS | 0 DSS | 0 DSS
44 | c1ccc2c(CCNc3ccc(Nc4ccncc4)cc3)c[nH]c2c1 [Serdemetan] | 0 DSS | 0 DSS | 0 DSS
45 | Clc1ccccc1C(c1ccccc1)(c1ccccc1)n1ccnc1 [Clotrimazole] | 0 DSS | 0 DSS | 0 DSS
46 | CCOC(=O)CCC(=O)O[C@H]1[C@H](O[C@@H]2[C@@H](C)[C@H](O[C@H]3C[C@@](C)(OC)[C@@H](O)[C@H](C)O3)[C@@H](C)C(=O)O[C@H](CC)[C@@](C)(O)[C@H](O)[C@@H](C)C(=O)[C@H](C)C[C@@]2(C)O)O[C@H](C)C[C@@H]1N(C)C [Erythromycin Ethylsuccinate] | 0 DSS | 0 DSS | 0 DSS

Reformatted with tabs: entries from further up
Row	SMILES	drug sensitivity score (OVCAR4)	drug sensitivity score (OVCAR3)	drug sensitivity score (Kuramochi)
25	CCCc1nn(C)c2c(=O)[nH]c(-c3cc(S(=O)(=O)N4CCN(C)CC4)ccc3OCC)nc12 [Sildenafil]	0 DSS	2.3 DSS	3.3 DSS
26	CC1=NN(c2ccccc2)C(=O)C1 [Edaravone]	0 DSS	0 DSS	0 DSS
27	CC(=O)O[C@]1(C(C)=O)CC[C@H]2[C@@H]3C=C(C)C4=CC(=O)CC[C@]4(C)[C@H]3CC[C@@]21C [Megestrol acetate]	0 DSS	0 DSS	0 DSS
28	S=c1nc[nH]c2nc[nH]c12 [6-Mercaptopurine]	0 DSS	0 DSS	0 DSS
29	COc1ccc2[nH]c3c(-c4cccc5ccccc45)nccc3c2c1 [SP-141]	0.7 DSS	8.6 DSS	2 DSS
30	Cc1ccc(NS(=O)(=O)c2ccc3c(c2)C2C=CCC2C(c2ccc(C(=O)O)cc2)N3)cc1C (stereo not drawn) [MX69]	0 DSS	0 DSS	0 DSS
31	N[C@@H]1[C@H]2CN(c3nc4c(cc3F)c(=O)c(C(=O)O)cn4-c3ccc(F)cc3F)C[C@@H]12 [Trovafloxacin]	0 DSS	0 DSS	0 DSS
32	COC(=O)CCC(=O)CN [Methyl aminolevulinate (hydrochloride)]	0 DSS	0 DSS	0 DSS
33	CC[C@@]1(O)C(=O)OCc2c1cc1n(c2=O)Cc2cc3ccccc3nc2-1 [Camptothecin]	0 DSS	0 DSS	0 DSS
34	CCc1c2c(nc3ccc(OC(=O)N4CCC(N5CCCCC5)CC4)cc13)-c1cc3c(c(=O)n1C2)COC(=O)[C@]3(O)CC [Irinotecan]	0 DSS	0 DSS	0 DSS
